Measured values published in US20130338457A1, “METHOD AND APPARATUS FOR DETECTING DISEASES ASSOCIATED WITH THE EYE” (THE REGENTS OF THE UNIVERSITY OF MICHIGAN, priority 2007, published 2013).
At least one compound was matched to its structure with a doubt left.

Experiment: Retinal FA imaging of diabetic retinopathy patients after treatment
Type: in vivo, human
Conditions: 3 patients with clinically significant diabetic retinopathy

SMILES: CC1(C)O[C@@H]2C[C@H]3[C@@H]4CCC5=CC(=O)C=C[C@]5(C)[C@@]4(F)[C@@H](O)C[C@]3(C)[C@]2(C(=O)CO)O1 [triamcinolone acetonide]
- Retinal FA intensities following injection: reduced FA intensities in all 3 cases
